# Measured values: article PMC4339375
# Results are given in words; binding and its absence hold for the method and conditions named. For part of these data: In cells and extracts the contact can be indirect. For part of these data: Binding can be weak; no strength is given. Sequences can lack the tags named with a protein.
# T1: PTST-TAP, Arabidopsis PTST with a C-terminal TAP tag containing c-Myc epitopes (Arabidopsis thaliana) (UniProt Q94AX2)
# T1 sequence: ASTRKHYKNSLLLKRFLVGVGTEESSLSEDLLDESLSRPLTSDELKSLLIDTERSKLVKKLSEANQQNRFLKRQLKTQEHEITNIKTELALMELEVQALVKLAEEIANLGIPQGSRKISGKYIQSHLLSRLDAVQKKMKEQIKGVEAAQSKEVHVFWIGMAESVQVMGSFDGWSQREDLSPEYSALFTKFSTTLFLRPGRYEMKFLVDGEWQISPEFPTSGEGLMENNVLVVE
# B1: GST-PTST, Arabidopsis PROTEIN … TO STARCH lacking the chloroplast transit peptide (protein, UniProt Q94AX2 45-277)
# chain: T1 sequence
# Experiments:
# [1] = target: T1, PTST-TAP, Arabidopsis PTST with a C-terminal TAP tag containing c-Myc epitopes (Arabidopsis thaliana); assay: co-IP; PTST-TAP (bait) and GBSS-CFP-HA (prey) transiently co-expressed in tobacco leaves; immunoprecipitated from extracted soluble proteins with anti-c-Myc beads; blots with anti-Myc and anti-HA
# [2] = target: GBSS-His6 E452K variant (Arabidopsis thaliana); assay: pull-down; GBSS-His6 recovered on Ni2+-NTA resin; 1 ug of each purified recombinant protein, 60 min at 20°C, 50 mM Tris-HCl pH 7.5, 300 mM NaCl, 10 mM imidazole, 0.1% BSA; eluted with 250 mM imidazole; immunoblot with anti-His and anti-GST; both purified
# [3] = target: GBSS-His6 K441E/E452K variant (Arabidopsis thaliana); assay: as above
Molecule,binding [1],binding [2],binding [3]
GBSS-CFP-HA with the charge-shift mutation at Glu452 (Arabidopsis thaliana) (enzyme),binds weakly,–,–
B1,–,no binding (tested: 1 μg each),no binding (tested: 1 μg each)
